Laboratory results reported in article PMC4624725.

Sequences of proteins named here, by UniProt entry; tags and fusion partners are left off. A change or cut given only in a name is not applied to a line headed by its entry.
UniProt P0C1G9: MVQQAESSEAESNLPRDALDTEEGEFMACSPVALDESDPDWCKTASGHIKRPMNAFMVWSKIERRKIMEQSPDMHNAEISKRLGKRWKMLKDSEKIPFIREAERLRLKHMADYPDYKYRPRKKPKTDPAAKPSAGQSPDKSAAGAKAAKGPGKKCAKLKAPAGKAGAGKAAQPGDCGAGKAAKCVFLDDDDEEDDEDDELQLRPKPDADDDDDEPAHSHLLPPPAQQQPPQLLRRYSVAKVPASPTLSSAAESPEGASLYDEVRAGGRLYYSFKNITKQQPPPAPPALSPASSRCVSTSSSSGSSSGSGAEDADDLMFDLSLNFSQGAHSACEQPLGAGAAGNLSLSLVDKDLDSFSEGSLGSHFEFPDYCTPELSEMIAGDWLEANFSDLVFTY

Assays:
Assay in all cases: co-IP; HEK 293FT lysates (NP-40 buffer); flag-sox11 deletion mutants immunoprecipitated with anti-flag on Dynabeads, caspase-6 detected with anti-caspase-6
Flag-Sox11 ΔHMG (rat) = Flag-Sox11 ΔHMG (rat) (UniProt P0C1G9)
Flag-Sox11 ΔC33 (rat) = Flag-Sox11 ΔC33 (rat) (UniProt P0C1G9)
[1] = target: Flag-Sox11 ΔC33Δ117–214 (rat) (UniProt P0C1G9)

Measured: binding

B1: caspase-6 C163A (full length, in HEK 293FT cells) (enzyme, UniProt P55212 1-293)
chain: MSSASGLRRGHPAGGEENMTETDAFYKREMFDPAEKYKMDHRRRGIALIFNHERFFWHLTLPERRGTCADRDNLTRRFSDLGFEVKCFNDLKAEELLLKIHEVSTVSHADADCFVCVFLSHGEGNHIYAYDAKIEIQTLTGLFKGDKCHSLVGKPKIFIIQAARGNQHDVPVIPLDVVDNQTEKLDTNITEVDAASVYTLPAGADFLMCYSVAEGYYSHRETVNGSWYIQDLCEMLGKYGSSLEFTELLTLVNRKVSQRRVDFCKDPSAIGKKQVPCFASMLTKKLHFFPKSN
binds: all assays above

B2: procaspase-6 (wild type, full length caspase-6) (enzyme, UniProt P55212 1-293)
chain: MSSASGLRRGHPAGGEENMTETDAFYKREMFDPAEKYKMDHRRRGIALIFNHERFFWHLTLPERRGTCADRDNLTRRFSDLGFEVKCFNDLKAEELLLKIHEVSTVSHADADCFVCVFLSHGEGNHIYAYDAKIEIQTLTGLFKGDKCHSLVGKPKIFIIQACRGNQHDVPVIPLDVVDNQTEKLDTNITEVDAASVYTLPAGADFLMCYSVAEGYYSHRETVNGSWYIQDLCEMLGKYGSSLEFTELLTLVNRKVSQRRVDFCKDPSAIGKKQVPCFASMLTKKLHFFPKSN
binds: all assays above

Results are given in words; binding and its absence hold for the method and conditions named. Binding seen in cells or lysates may run through a third protein. Binding can be weak; no strength is given.
